Data taken from PubChem BioAssay AID330 (DTP/NCI, 2004).
The list is a part of this screen's results and no random one: it gathers tests that were run many times, whatever their T/C, doses with no T/C, and many T/C values between a quarter and a half above the control. Other doses and runs of a compound stand elsewhere. T/C: endpoint of the treated group in % of that of the vehicle group. Some doses have a count of surviving animals in place of a T/C: the source files T/C as zero there, which appears to mark a toxic dose or a test without result, not a measured value. Some doses without a T/C left all or most animals alive at the check, yet need not have been tolerated: the source hardly ever lists a survival T/C far under the control, and the zero likely stands for such cases as well. Counts of survivors are from the toxicity check (mostly the fifth day) where no day follows; animals may have died later. Schedules are NCI's codes, read here as Q, the interval in days (D) or hours (H), X, the number of doses. Some doses were run more than once; the results are listed from low to high. Some molecules as drawn cover several salts, stereoisomers or complexes of the source; a dose is that of the sample tested. Some schedules carry Z or #; the key to these is not given. For survival time, the PubChem record calls one and a half times the control and up active, and a quarter to a half above the control has no call in these data; cut-offs in other NCI protocols can differ.

Test system: P388 leukemia ip, CD2F1 mice, survival T/C
Test: NCI In Vivo Anticancer Drug Screen. Data for tumor model P388 Leukemia (intraperitoneal) in CD2F1 (CDF1) mice
Details: T/C endpoint: median survival time, higher T/C = longer survival
[1] = dose: 200.0 mg/kg/injection, schedule: Q01DX009 (ip), vehicle: saline
[2] = dose: 100.0 mg/kg/injection, schedule: Q01DX009 (ip), vehicle: saline with Tween-80
[3] = dose: 200.0 mg/kg/injection, schedule: Q01DX009 (ip), vehicle: saline with Tween-80
[4] = dose: 50.0 mg/kg/injection, schedule: Q01DX009 (ip), vehicle: saline
[5] = dose: 100.0 mg/kg/injection, schedule: Q01DX009 (ip), vehicle: saline
[6] = dose: 400.0 mg/kg/injection, schedule: Q01DX001 (ip), vehicle: saline with Tween-80
[7] = dose: 120.0 mg/kg/injection, schedule: Q01DX005 (ip), vehicle: saline
[8] = dose: 240.0 mg/kg/injection, schedule: Q01DX005 (ip), vehicle: saline
[9] = dose: 100.0 mg/kg/injection, schedule: Q01DX009 (ip), vehicle: water
[10] = dose: 200.0 mg/kg/injection, schedule: Q01DX009 (ip), vehicle: water
[11] = dose: 200.0 mg/kg/injection, schedule: Q01DX005 (ip), vehicle: saline with Tween-80
[12] = dose: 120.0 mg/kg/injection, schedule: Q01DX005 (ip), vehicle: Klucel (hydroxypropylcellulose) (HPC)

For `CN1CCN(CN2C(=O)C3C4C=CC(C3C2=O)C2C3C(=O)N(CN5CCN(C)CC5)C(=O)C3C42)CC1` (centres undefined), the T/C (dose: 41.3 mg/kg/injection, schedule: Q01DX009 (ip), vehicle: water) was 130 % of control, the T/C (dose: 44.6 mg/kg/injection, schedule: Q01DX009 (ip), vehicle: water) was 146 % of control and the T/C (dose: 50.0 mg/kg/injection, schedule: Q01DX009 (ip), vehicle: water) was 125 % of control. The T/C (dose: 60.0 mg/kg/injection, schedule: Q01DX005 (ip), vehicle: water) was 140 % of control, the survivor count (dose: 114.7 mg/kg/injection, schedule: Q01DX009 (ip), vehicle: water) was 2 of 6 and the survivor count (dose: 120.0 mg/kg/injection, schedule: Q01DX005 (ip), vehicle: water) was 3 of 6 and 6 of 6. The survivor count (dose: 124.0 mg/kg/injection, schedule: Q01DX009 (ip), vehicle: water) was 2 of 6, the survivor count (dose: 166.7 mg/kg/injection, schedule: Q01DX009 (ip), vehicle: water) was 3 of 6 and the survivor count (dose: 191.2 mg/kg/injection, schedule: Q01DX009 (ip), vehicle: water) was 0 of 6. For the same compound, the survivor count [1] was 5 of 6 and the survivor count (dose: 206.7 mg/kg/injection, schedule: Q01DX009 (ip), vehicle: water) was 0 of 6.
With `COc1cc(OC)c(NC(=O)ON2C(=O)c3ccccc3C2=O)cc1Cl` the T/C (dose: 50.0 mg/kg/injection, schedule: Q01DX009 (ip), vehicle: saline with Tween-80) was 132 % of control, the survivor count [2] was 5 of 6 and the survivor count [3] was 3 of 6.
`C=CC[n+]1ccc(-c2cc[n+](CC=C)cc2)cc1` was tested, and the survivor count (dose: 25.0 mg/kg/injection, schedule: Q01DX009 (ip), vehicle: saline) was 4 of 6 and 5 of 6, the survivor count [4] was 0 of 6 and the survivor count [5] was 0 of 6. The survivor count [1] was 0 of 6.
With `CC(C)N=C(c1ccccc1)N1CCCCC1` the survivor count [4] was 0 of 6 and 3 of 6, the survivor count [5] was 0 of 6 and the survivor count [1] was 0 of 6.
With `CCc1cccc2c(NCCCCCCCCCCNc3c4ccccc4nc4c(CC)cccc34)c3ccccc3nc12` the T/C (dose: 5.0 mg/kg/injection, schedule: Q## X009 (ip), vehicle: lactic acid) was 127 % of control, the T/C (dose: 10.0 mg/kg/injection, schedule: Q## X009 (ip), vehicle: lactic acid) was 133 % of control and the survivor count (dose: 20.0 mg/kg/injection, schedule: Q## X009 (ip), vehicle: lactic acid) was 3 of 6.
`O=c1[nH]c(Cl)nc2n[nH]c(Br)c12` was tested, and the survivor count [6] was 0 of 6.
`CCCCCCCCCCCCCCCCOP(=O)([O-])OCC[N+](C)(C)C` was tested, and the survivor count [7] was 0 of 6 and the survivor count [8] was 0 of 6.
`COc1cc2c(c(OC)c1OC)-c1ccc(SCc3ccccc3)c(=O)cc1[C@@H](NC(C)=O)CC2` was tested, and the T/C (dose: 3.12 mg/kg/injection, schedule: Q01DX009 (ip), vehicle: Klucel (hydroxypropylcellulose) (HPC)) was 145 % of control, the T/C (dose: 6.25 mg/kg/injection, schedule: Q01DX009 (ip), vehicle: Klucel (hydroxypropylcellulose) (HPC)) was 148 % of control and the T/C (dose: 12.5 mg/kg/injection, schedule: Q01DX009 (ip), vehicle: Klucel (hydroxypropylcellulose) (HPC)) was 125 % of control. For the same compound, the T/C (dose: 12.5 mg/kg/injection, schedule: Q01DX009 (ip), vehicle: saline with Tween-80) was 130 % of control, the survivor count (dose: 25.0 mg/kg/injection, schedule: Q01DX009 (ip), vehicle: Klucel (hydroxypropylcellulose) (HPC)) was 2 of 6 and 3 of 6 and the survivor count (dose: 25.0 mg/kg/injection, schedule: Q01DX009 (ip), vehicle: saline with Tween-80) was 4 of 6. The survivor count (dose: 50.0 mg/kg/injection, schedule: Q01DX009 (ip), vehicle: Klucel (hydroxypropylcellulose) (HPC)) was 0 of 6.
`C=Cc1ccc2cccc(O)c2n1` was tested, and the survivor count (dose: 200.0 mg/kg/injection, schedule: Q01DX001 (ip), vehicle: saline with Tween-80) was 3 of 6 and the survivor count [6] was 0 of 6.
For `CC1(O)CC[N+](C)(C)CC1c1ccccc1` (centres undefined), the survivor count (dose: 200.0 mg/kg/injection, schedule: Q04DX003 (ip), vehicle: saline) was 0 of 6.
`O=C(CCl)NCCCl` was tested, and the survivor count [1] was 3 of 6.
`CC(=O)NC(C=O)OCC=O` (centres undefined) was tested, and the T/C (dose: 100.0 mg/kg/injection, schedule: Q01DX005 (ip), vehicle: water) was 127 % of control, the T/C [9] was 135 % of control and the survivor count [10] was 6 of 6. For the same compound, the survivor count (dose: 400.0 mg/kg/injection, schedule: Q01DX009 (ip), vehicle: water) was 0 of 6.
In the case of `CCCC(=O)C#C[Si](C)(C)C`, the survivor count [11] is reported as 1 of 6.
In the case of `CCCCCCCCCCCCCCCC[As](CCCCCCCCCCCCCCCC)SCC1OC(OC(C)=O)C(OC(C)=O)C(OC(C)=O)C1OC(C)=O` (centres undefined), the T/C [2] is reported as 125 % of control and the T/C [3] is reported as 126 % of control.
For `CC(C)Oc1nc(N2CCNCC2)nc2c1CCCC2`, the survivor count [7] was 1 of 6 and the survivor count [8] was 0 of 6.
`COC1OC(COC(=O)c2ccccc2)C(=O)C(OC(=O)c2ccccc2)C1N(O)c1ccccc1` (centres undefined) was tested, and the survivor count (dose: 60.0 mg/kg/injection, schedule: Q01DX005 (ip), vehicle: Klucel (hydroxypropylcellulose) (HPC)) was 6 of 6, the survivor count [12] was 6 of 6 and the survivor count (dose: 240.0 mg/kg/injection, schedule: Q01DX005 (ip), vehicle: Klucel (hydroxypropylcellulose) (HPC)) was 6 of 6.
In the case of `[Cl][Pt][Cl].c1c[nH]cn1.c1c[nH]cn1`, the T/C (dose: 25.0 mg/kg/injection, schedule: Q04DX002 (ip), vehicle: saline with Tween-80) is reported as 125 % of control, the T/C (dose: 50.0 mg/kg/injection, schedule: Q04DX002 (ip), vehicle: saline with Tween-80) is reported as 132 % of control and the T/C (dose: 100.0 mg/kg/injection, schedule: Q04DX002 (ip), vehicle: saline with Tween-80) is reported as 139 % of control.
With `CCOc1ccc(/C=N/NC(=O)c2ccccc2NC(=O)c2ccccc2Cl)cc1OC` the survivor count [12] was 6 of 6.
With `O=S(=O)(OI(O)c1ccccc1)c1ccc(Cl)cc1` the survivor count [9] was 4 of 6 and the survivor count [10] was 0 of 6.
In the case of `O=C1C(=O)c2ncccc2-c2ncccc21`, the survivor count (dose: 30.0 mg/kg/injection, schedule: Q01DX005 (ip), vehicle: saline with Tween-80) is reported as 4 of 6, the survivor count (dose: 60.0 mg/kg/injection, schedule: Q01DX005 (ip), vehicle: saline with Tween-80) is reported as 0 of 6 and the survivor count (dose: 120.0 mg/kg/injection, schedule: Q01DX005 (ip), vehicle: saline with Tween-80) is reported as 0 of 6. For the same compound, the survivor count (dose: 240.0 mg/kg/injection, schedule: Q01DX005 (ip), vehicle: saline with Tween-80) was 0 of 6.
In the case of `CC[N+]1(C)CCCCC1`, the survivor count [5] is reported as 0 of 6 and the survivor count [1] is reported as 0 of 6.
In the case of `CCN(CC)CCCNc1cc(OC)c(Nc2ccccc2)c2cccnc12`, the survivor count (dose: 50.0 mg/kg/injection, schedule: Q01DX005 (ip), vehicle: saline with Tween-80) is reported as 0 of 5, the survivor count (dose: 100.0 mg/kg/injection, schedule: Q01DX005 (ip), vehicle: saline with Tween-80) is reported as 0 of 5 and the survivor count [11] is reported as 0 of 5.
For `O=c1c2ccccc2[nH]c(=S)n1-c1cccc(C(F)(F)F)c1`, the survivor count (dose: 400.0 mg/kg/injection, schedule: Q01DX009 (ip), vehicle: saline with Tween-80) was 5 of 6.
In the case of `CC1(C)N=C(N)N=C(N)N1c1cccc(CNC(=O)Nc2cccc(S(=O)(=O)F)c2)c1`, the survivor count (dose: 44.0 mg/kg/injection, schedule: Q01DX009 (ip), vehicle: saline with Tween-80) is reported as 6 of 6, the survivor count (dose: 67.0 mg/kg/injection, schedule: Q01DX009 (ip), vehicle: saline with Tween-80) is reported as 6 of 6 and the survivor count [2] is reported as 6 of 6. The survivor count [5] was 2 of 6, the survivor count (dose: 150.0 mg/kg/injection, schedule: Q01DX009 (ip), vehicle: saline with Tween-80) was 3 of 6 and the survivor count [1] was 0 of 6.
For `C=C1C(=O)O[C@@H]2C[C@@H](C)[C@@H]3CC[C@H](O)[C@@]3(COC(C)=O)C[C@@H]12`, the T/C (dose: 130.0 mg/kg/injection, schedule: Q01DX005 (ip), vehicle: Klucel (hydroxypropylcellulose) (HPC)) was 125 % of control.
For `Clc1ccc(-c2cn3c(n2)SCC3)cc1`, the survivor count (dose: 400.0 mg/kg/injection, schedule: Q01DX001 (ip), vehicle: Klucel (hydroxypropylcellulose) (HPC)) was 6 of 6.
